Experimental data taken from PubChem BioAssay AID190 (DTP/NCI, 2004).
The list shows only some results of the screen, not a fair sample: it gathers tests that were run many times, whatever their T/C, doses with no T/C, and many T/C values between a quarter and a half above the control. Further doses and runs are listed elsewhere. T/C: endpoint of the treated group in % of that of the vehicle group. Some doses have a count of surviving animals in place of a T/C: the source holds a T/C of zero for them, seemingly a mark for toxic or unscored doses. Some survivor counts are full or nearly so, which does not show that the dose was tolerated: survival well below the control is almost never listed, so the zero probably covers shortened survival too. Counts of survivors are from the toxicity check (mostly the fifth day) where no day follows; animals may have died later. Schedules are NCI's codes, read here as Q, the interval in days (D) or hours (H), X, the number of doses. Some entries hold several experiments; the values are given in rising order. For survival time, the PubChem record calls one and a half times the control and up active, and a quarter to a half above the control has no call in these data; cut-offs in other NCI protocols can differ. Some T/C values carry the count of animals alive at the toxicity check (mostly the fifth day); without a count, all were alive then. Counts like (3×) count equal records among those shown.

Test system: AKR/Lw mice, AKR lymphoma ip, median survival T/C
Experiment: NCI In Vivo Anticancer Drug Screen. Data for tumor model Lymphoma AKR (Transplanted) (intraperitoneal) in AKR/Lw mice
Conditions: T/C endpoint: median survival time, higher T/C = longer survival
Procedure: The antitumor activity of compounds was measured in mice bearing transplantable tumors. Survival or tumor size were measured and the results are expressed as the measurement made in the treated group (T) divided by the measurement made in the vehicle treated control group (C). The tumor model used in this assay is Lymphoma AKR (Transplanted) (intraperitoneal) in AKR/Lw mice

[1] = dose: 7.5 mg/kg/injection, schedule: Q01DX009 (ip), vehicle: saline
[2] = dose: 15.0 mg/kg/injection, schedule: Q01DX009 (ip), vehicle: saline
[3] = dose: 20.0 mg/kg/injection, schedule: Q01DX009 (ip), vehicle: saline
[4] = dose: 25.0 mg/kg/injection, schedule: Q04DX003 (ip), vehicle: saline
[5] = dose: 100.0 mg/kg/injection, schedule: Q04DX003 (ip), vehicle: saline
[6] = dose: 125.0 mg/kg/injection, schedule: Q07DX003 (ip), vehicle: saline
[7] = dose: 150.0 mg/kg/injection, schedule: Q01DX001 (ip), vehicle: saline
[8] = dose: 300.0 mg/kg/injection, schedule: Q01DX001 (ip), vehicle: saline
[9] = dose: 500.0 mg/kg/injection, schedule: Q01DX001 (ip), vehicle: saline

## O=P1(NCCCl)OCCCN1CCCl (stereo unspecified)
[1]
  T/C: 142 % of control
  survivor count: 10 of 10
[2]
  T/C: 105, 115, 134 % of control
  survivor count: 10 of 10
[3]
  T/C: 126 and 141 % of control
  survivor count: 10 of 10
dose: 25.0 mg/kg/injection, schedule: Q01DX009 (ip), vehicle: saline
  T/C: 129 % of control
[4]
  T/C: 110, 115, 126 % of control
  survivor count: 10 of 10
dose: 25.0 mg/kg/injection, schedule: Q07DX003 (ip), vehicle: saline
  T/C: 126, 128, 139 % of control
dose: 30.0 mg/kg/injection, schedule: Q01DX009 (ip), vehicle: saline, evaluated on day 45
  T/C: 123 % of control
dose: 30.0 mg/kg/injection, schedule: Q01DX009 (ip), vehicle: saline, evaluated on day 60
  T/C: 118 and 150 % of control
dose: 30.0 mg/kg/injection, schedule: Q01DX009 (ip), vehicle: saline
  survivor count: 9 of 10 and 10 of 10
dose: 40.0 mg/kg/injection, schedule: Q01DX009 (ip), vehicle: saline
  survivor count: 9 of 10
dose: 45.0 mg/kg/injection, schedule: Q01DX009 (ip), vehicle: saline
  survivor count: 9 of 10 and 5 of 5
dose: 50.0 mg/kg/injection, schedule: Q01DX001 (ip), vehicle: saline
  T/C: 87, 120, 127, 154 % of control
dose: 50.0 mg/kg/injection, schedule: Q01DX009 (ip), vehicle: saline
  T/C: 126 % of control
dose: 50.0 mg/kg/injection, schedule: Q04DX003 (ip), vehicle: saline
  T/C: 105, 111, 116, 128, 132 % of control
dose: 50.0 mg/kg/injection, schedule: Q07DX003 (ip), vehicle: saline
  T/C: 144 % of control
dose: 60.0 mg/kg/injection, schedule: Q01DX009 (ip), vehicle: saline
  T/C: 126 % of control
dose: 75.0 mg/kg/injection, schedule: Q01DX001 (ip), vehicle: saline
  T/C: 131, 134, 136 % of control
dose: 75.0 mg/kg/injection, schedule: Q04DX003 (ip), vehicle: saline
  T/C: 135 % of control
dose: 80.0 mg/kg/injection, schedule: Q01DX009 (ip), vehicle: saline
  survivor count: 10 of 10
dose: 100.0 mg/kg/injection, schedule: Q01DX001 (ip), vehicle: saline
  T/C: 95 [9 of 10 alive], 115, 130, 147, 168 % of control
dose: 100.0 mg/kg/injection, schedule: Q01DX009 (ip), vehicle: saline
  T/C: 126 % of control
[5]
  T/C: 117, 131, 141 % of control
  survivor count: 9 of 10 and 10 of 10
dose: 100.0 mg/kg/injection, schedule: Q07DX003 (ip), vehicle: saline
  survivor count: 10 of 10
dose: 125.0 mg/kg/injection, schedule: Q04DX003 (ip), vehicle: saline
  survivor count: 10 of 10
[6]
  T/C: 139 % of control
  survivor count: 9 of 10
[7]
  T/C: 115, 140, 145, 153, 169, 190 % of control
  survivor count: 10 of 10
dose: 150.0 mg/kg/injection, schedule: Q04DX003 (ip), vehicle: saline
  survivor count: 10 of 10
dose: 160.0 mg/kg/injection, schedule: Q01DX009 (ip), vehicle: saline
  survivor count: 9 of 10
dose: 200.0 mg/kg/injection, schedule: Q01DX001 (ip), vehicle: saline
  T/C: 95, 148, 180, 186 [9 of 10 alive], 210 % of control
dose: 200.0 mg/kg/injection, schedule: Q04DX003 (ip), vehicle: saline
  T/C: 144 % of control
dose: 250.0 mg/kg/injection, schedule: Q01DX001 (ip), vehicle: saline
  T/C: 125 % of control
dose: 250.0 mg/kg/injection, schedule: Q04DX003 (ip), vehicle: saline
  survivor count: 10 of 10
[8]
  T/C: 147, 156 (2×), 160 % of control
  survivor count: 10 of 10
dose: 400.0 mg/kg/injection, schedule: Q01DX001 (ip), vehicle: saline
  survivor count: 5 of 10 and 10 of 10
[9]
  T/C: 125 % of control
  survivor count: 8 of 10
dose: 500.0 mg/kg/injection, schedule: Q01DX001 (sc), vehicle: steroid suspending solution
  survivor count: 9 of 10
dose: 500.0 mg/kg/injection, schedule: Q04DX003 (ip), vehicle: saline, evaluated on day 45
  T/C: 128 % of control
dose: 500.0 mg/kg/injection, schedule: Q04DX003 (ip), vehicle: saline, evaluated on day 60
  T/C: 88 % of control [9 of 10 alive]
dose: 500.0 mg/kg/injection, schedule: Q04DX003 (ip), vehicle: saline
  survivor count: 9 of 10 and 10 of 10
dose: 600.0 mg/kg/injection, schedule: Q01DX001 (ip), vehicle: saline
  survivor count: 0 of 10
dose: 700.0 mg/kg/injection, schedule: Q01DX001 (ip), vehicle: saline
  survivor count: 6 of 10
dose: 800.0 mg/kg/injection, schedule: Q01DX001 (ip), vehicle: saline
  survivor count: 3 of 10
